Assays:
[1] = target: two-color SERCA (2CS) biosensor (SERCA2a) (UniProt P16615); assay: 2CS FRET biosensor in living HEK293 cells, spectral mode (spectral unmixing plate reader); format: cell-based, human; conditions: NCC screen, reproducible and dose-dependent FRET decrease
Protocol: HEK293 cells were maintained in phenol-red-free DMEM from Gibco (Waltham, Mass.) supplemented with 2 mM GlutaMAX (Gibco), 10% fetal bovine serum (FBS) from Atlanta Biologicals (Laweranceville, Ga.), and 1 IU/mL penicillin/streptomycin (Gibco) and grown at 37° C. with 5% CO2. Stable clones expressing the FRET biosensors and corresponding donor- and acceptor-labeled control cell lines were established as described previously. Briefly, cells were transfected with the recombinant DNA following established protocols lipofectaimine 3000 from Invitrogen (Carlsbad, Calif.). […] The stability of each clone was assessed by flow cytometry and confocal microscopy (data not shown). […] Cell viability was assessed using trypan blue. […]
In its spectral unmixing plate reader (SUPR) mode, the instrument provides direct high-throughput detection of the complete fluorescence emission spectrum, (emission vs wavelength), with excitation provided by a 473 nm continuous wave laser. Spectra are recorded using a grating-based fiber optic input spectrograph equipped with linear-array CCD detector (Sony ILX511B). The recorded wavelength range in these experiments spanned the entire visible spectrum, but only the 400-700 nm range was used in the data analysis. In lifetime mode, the full nanosecond-resolved fluorescence emission waveform is acquired following excitation with a 473 nm pulsed microchip laser. […]

Chains of the proteins cited; added tags and fusions are not shown. Residues count along the entry.
UniProt P04191, 1-994 isoform P04191-2: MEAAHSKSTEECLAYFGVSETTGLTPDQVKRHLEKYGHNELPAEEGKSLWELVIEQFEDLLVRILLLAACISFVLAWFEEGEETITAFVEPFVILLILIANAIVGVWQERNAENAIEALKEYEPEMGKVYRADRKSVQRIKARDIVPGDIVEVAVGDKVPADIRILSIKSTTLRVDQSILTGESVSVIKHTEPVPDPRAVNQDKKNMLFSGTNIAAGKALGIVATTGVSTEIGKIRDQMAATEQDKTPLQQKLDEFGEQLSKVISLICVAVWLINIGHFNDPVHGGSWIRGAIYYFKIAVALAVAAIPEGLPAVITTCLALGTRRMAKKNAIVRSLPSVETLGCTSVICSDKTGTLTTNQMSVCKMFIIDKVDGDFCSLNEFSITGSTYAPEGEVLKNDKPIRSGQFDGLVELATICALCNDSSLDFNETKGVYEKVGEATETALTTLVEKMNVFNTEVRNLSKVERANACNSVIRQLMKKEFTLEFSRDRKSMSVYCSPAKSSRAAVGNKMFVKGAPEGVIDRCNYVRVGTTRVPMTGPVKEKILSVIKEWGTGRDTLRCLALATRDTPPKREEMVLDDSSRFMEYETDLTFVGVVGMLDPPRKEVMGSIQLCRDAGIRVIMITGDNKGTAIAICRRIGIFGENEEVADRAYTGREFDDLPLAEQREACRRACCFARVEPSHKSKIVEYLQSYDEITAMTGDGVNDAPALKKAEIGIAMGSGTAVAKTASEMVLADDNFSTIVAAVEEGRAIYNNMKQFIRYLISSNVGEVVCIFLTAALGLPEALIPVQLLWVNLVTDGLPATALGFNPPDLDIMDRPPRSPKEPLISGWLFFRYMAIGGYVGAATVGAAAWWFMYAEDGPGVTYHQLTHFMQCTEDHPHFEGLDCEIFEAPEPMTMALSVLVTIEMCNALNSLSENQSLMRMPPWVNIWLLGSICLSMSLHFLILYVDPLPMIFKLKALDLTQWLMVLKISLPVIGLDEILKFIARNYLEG

SERCA = SERCA (Oryctolagus cuniculus, UniProt P04191); conditions: 10 μM free calcium, 20 minute incubation
Description: An enzyme-coupled, NADH-linked ATPase assay was used to measure SERCA ATPase activity in 96-well microplates.

Row | 2CS FRET hit identification [1] | Ki (SERCA; eight-point curves in triplicate) [nM] | inhibition of SERCA ATPase activity (SERCA; maximal) [%] | SMILES
1 | hits | – | – | Clc1ccc(CO/N=C(\Cn2ccnc2)c2ccc(Cl)cc2Cl)c(Cl)c1 [oxiconazole]
2 | – | 2800 | 92.4 | Clc1ccc(COC(Cn2ccnc2)c2ccc(Cl)cc2Cl)c(Cl)c1 (stereo not drawn) [miconazole]

Reference: US20210255195A1, “HIGH PRECISION SPECTRAL FRET ASSAYS” (Regents of the University of Minnesota, priority 2017, published 2021)
